Test results taken from US10690635 (dated 2020).
Where a sequence shows no end group, the ends are not given.

Assay: general procedure: Fmoc solid-phase peptide synthesis
Conditions: for crude HPLC purity: whole synthesis

HAEGTFTSDVSSYLEGQAAKEFIAWLVRGRG
final HPLC purity (purification step, 220 nm): 99.35% | final HPLC purity (purification step, RP-UHPLC): 98.8% | final purity (method not given) (purification step, analytical RP-UHPLC, relative peak area, UV detection at 220 nm): 99.2% | final HPLC purity (purification step, analytical RP-UHPLC, relative peak area, UV detection at 220 nm, run 1): 99.38% | final HPLC purity (purification step, analytical RP-UHPLC, relative peak area, UV detection at 220 nm, run 2): 99.36% | final HPLC purity (purification step, analytical RP-UHPLC, relative peak area, UV detection at 220 nm, run 3): 99.3% | step yield (purification step, overall net peptide yield of desalting): 91% | step yield (purification step, overall yield after both purification steps): 35% | crude HPLC purity (analytical RP-UHPLC, relative peak area, UV detection at 220 nm, run 1): >=60% | crude HPLC purity (analytical RP-UHPLC, relative peak area, UV detection at 220 nm, run 2): >60%
